No constants are given. Whether binding was seen depends on the method and setting. Some entries that bind do so weakly or less than the wild type.

For this assay, the target named is Neuropilin-1 on CD4+ T cells contained in murine splenocytes (mouse) (UniProt P97333). Description: flow cytometry, phage clone on murine splenocytes, biotinylated anti-phage antibody and fluorescent streptavidin.

In the case of GGSKPVR [phage clone FL8 (displayed peptide GGSKPVR)], the binding result is “binds”.

For the molecule VSYKAIR [phage clone FL4 (displayed peptide VSYKAIR)], the binding entry is “binds”.

The values above are taken from patent publication US20190300585A1.
